This note sets out measurements from the supplement of paper PMC12067093, “Discovery and optimisation of a covalent ligand for TRIM25 and its application to targeted protein ubiquitination” (Chemical Science, 2025).

The chains behind the UniProt entries cited, without tags or fusion partners. Where a name states a change or a piece, a line headed by the entry shows the natural chain unless it says otherwise.
UniProt P46940, whole entry, looked up: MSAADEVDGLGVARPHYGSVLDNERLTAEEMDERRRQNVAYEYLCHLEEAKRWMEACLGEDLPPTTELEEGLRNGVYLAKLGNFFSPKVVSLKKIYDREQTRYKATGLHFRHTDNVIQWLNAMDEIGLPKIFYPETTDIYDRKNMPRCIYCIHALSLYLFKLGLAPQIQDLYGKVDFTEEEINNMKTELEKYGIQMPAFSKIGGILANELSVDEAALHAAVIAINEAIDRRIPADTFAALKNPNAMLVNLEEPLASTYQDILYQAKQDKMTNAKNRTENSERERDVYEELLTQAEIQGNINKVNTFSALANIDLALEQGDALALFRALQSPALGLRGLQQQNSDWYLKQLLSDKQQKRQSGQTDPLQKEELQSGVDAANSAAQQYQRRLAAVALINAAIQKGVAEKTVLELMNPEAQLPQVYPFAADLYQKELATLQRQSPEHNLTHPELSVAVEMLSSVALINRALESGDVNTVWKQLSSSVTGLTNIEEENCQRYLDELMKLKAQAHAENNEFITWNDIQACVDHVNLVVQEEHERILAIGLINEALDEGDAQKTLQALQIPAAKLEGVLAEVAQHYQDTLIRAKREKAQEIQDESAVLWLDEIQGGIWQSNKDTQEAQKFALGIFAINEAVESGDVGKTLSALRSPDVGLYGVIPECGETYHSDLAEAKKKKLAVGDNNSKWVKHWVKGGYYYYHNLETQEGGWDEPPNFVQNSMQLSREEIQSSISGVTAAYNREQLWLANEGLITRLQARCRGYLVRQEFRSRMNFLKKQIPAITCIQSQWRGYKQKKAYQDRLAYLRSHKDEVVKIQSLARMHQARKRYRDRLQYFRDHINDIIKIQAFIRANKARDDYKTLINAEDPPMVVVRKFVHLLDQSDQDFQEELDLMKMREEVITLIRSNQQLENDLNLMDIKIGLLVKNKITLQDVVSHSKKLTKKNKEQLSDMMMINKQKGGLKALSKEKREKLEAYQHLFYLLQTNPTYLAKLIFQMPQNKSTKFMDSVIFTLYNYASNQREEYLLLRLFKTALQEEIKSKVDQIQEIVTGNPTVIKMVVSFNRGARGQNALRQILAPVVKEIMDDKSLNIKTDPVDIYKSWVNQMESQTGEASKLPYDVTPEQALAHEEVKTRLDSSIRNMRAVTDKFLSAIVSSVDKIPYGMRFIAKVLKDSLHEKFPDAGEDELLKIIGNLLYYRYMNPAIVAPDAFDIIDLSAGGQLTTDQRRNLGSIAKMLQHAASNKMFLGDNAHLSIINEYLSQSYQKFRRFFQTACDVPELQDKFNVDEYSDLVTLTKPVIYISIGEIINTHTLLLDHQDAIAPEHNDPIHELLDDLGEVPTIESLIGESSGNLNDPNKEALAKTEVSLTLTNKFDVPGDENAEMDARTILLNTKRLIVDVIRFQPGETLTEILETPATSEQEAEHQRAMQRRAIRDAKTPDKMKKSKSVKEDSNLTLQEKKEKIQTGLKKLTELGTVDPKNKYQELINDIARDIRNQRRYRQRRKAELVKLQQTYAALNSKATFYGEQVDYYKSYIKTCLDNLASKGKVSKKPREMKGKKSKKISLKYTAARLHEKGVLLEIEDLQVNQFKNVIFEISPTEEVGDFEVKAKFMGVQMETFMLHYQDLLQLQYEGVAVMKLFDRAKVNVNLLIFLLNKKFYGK
UniProt Q8IU81: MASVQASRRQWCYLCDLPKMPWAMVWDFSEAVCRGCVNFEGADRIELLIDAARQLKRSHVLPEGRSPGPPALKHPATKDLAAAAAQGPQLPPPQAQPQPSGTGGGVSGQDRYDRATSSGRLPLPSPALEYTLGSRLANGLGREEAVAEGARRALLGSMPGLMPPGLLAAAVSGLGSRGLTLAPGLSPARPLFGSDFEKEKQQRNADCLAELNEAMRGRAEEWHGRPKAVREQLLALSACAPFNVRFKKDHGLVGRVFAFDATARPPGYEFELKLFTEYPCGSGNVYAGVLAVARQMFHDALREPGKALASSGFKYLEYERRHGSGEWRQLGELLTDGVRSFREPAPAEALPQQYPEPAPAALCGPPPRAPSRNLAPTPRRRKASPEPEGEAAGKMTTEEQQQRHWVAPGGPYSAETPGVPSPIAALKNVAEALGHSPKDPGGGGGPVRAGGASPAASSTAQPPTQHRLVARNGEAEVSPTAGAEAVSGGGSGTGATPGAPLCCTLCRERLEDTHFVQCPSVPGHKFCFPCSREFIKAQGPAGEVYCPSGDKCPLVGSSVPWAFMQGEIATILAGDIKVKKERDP
UniProt P48200: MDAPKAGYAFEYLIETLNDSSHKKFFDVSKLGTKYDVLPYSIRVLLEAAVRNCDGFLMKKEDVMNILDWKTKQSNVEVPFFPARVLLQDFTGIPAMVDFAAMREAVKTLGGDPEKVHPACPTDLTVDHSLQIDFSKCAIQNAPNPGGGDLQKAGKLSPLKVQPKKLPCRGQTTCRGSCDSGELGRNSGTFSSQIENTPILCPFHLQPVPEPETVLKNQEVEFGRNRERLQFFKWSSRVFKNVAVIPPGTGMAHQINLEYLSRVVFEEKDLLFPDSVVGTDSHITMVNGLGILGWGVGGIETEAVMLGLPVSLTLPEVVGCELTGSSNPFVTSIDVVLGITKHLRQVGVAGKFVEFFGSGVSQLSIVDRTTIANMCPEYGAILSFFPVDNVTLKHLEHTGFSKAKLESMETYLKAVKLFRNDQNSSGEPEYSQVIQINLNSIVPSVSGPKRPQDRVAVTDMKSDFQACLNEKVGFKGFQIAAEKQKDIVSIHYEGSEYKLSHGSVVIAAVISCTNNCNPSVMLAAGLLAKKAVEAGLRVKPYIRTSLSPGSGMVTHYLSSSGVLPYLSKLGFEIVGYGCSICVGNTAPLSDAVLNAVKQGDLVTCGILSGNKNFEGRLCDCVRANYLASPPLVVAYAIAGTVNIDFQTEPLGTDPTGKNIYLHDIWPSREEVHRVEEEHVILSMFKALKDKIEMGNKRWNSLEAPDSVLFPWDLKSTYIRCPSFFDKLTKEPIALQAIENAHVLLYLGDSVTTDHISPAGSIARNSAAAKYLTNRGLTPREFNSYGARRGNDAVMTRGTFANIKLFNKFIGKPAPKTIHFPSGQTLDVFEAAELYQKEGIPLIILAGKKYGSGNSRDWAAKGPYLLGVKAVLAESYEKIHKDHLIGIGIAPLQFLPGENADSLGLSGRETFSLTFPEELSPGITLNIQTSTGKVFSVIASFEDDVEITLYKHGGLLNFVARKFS
UniProt P20701: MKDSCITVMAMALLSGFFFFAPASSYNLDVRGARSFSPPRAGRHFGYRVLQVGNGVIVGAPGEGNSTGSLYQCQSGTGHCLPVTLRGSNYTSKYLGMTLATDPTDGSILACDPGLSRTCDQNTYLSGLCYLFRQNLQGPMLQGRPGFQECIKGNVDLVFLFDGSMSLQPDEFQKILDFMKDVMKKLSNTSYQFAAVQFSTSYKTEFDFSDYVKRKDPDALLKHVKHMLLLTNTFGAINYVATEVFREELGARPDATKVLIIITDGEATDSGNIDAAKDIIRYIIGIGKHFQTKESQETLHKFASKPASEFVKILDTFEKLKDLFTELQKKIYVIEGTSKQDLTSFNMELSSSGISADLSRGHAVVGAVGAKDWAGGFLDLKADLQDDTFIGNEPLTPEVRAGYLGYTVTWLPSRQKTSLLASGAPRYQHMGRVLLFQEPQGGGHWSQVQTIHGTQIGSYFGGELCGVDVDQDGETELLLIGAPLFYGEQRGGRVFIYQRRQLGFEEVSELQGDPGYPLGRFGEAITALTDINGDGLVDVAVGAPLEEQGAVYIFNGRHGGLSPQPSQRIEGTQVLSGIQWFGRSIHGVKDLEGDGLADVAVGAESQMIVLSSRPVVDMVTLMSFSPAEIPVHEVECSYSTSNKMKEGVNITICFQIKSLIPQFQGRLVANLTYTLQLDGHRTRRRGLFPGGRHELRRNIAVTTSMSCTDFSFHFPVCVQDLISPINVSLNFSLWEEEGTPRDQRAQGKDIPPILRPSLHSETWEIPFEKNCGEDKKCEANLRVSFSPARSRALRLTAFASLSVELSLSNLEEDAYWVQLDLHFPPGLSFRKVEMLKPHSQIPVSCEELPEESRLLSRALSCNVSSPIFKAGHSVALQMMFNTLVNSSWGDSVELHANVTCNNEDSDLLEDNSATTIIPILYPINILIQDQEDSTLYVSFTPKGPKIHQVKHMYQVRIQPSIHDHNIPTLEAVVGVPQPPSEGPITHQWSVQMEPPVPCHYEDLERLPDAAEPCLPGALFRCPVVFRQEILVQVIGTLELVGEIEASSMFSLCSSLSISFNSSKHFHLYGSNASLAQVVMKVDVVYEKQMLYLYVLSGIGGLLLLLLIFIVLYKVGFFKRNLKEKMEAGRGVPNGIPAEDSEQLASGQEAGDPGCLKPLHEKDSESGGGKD
UniProt P05107, whole entry, looked up: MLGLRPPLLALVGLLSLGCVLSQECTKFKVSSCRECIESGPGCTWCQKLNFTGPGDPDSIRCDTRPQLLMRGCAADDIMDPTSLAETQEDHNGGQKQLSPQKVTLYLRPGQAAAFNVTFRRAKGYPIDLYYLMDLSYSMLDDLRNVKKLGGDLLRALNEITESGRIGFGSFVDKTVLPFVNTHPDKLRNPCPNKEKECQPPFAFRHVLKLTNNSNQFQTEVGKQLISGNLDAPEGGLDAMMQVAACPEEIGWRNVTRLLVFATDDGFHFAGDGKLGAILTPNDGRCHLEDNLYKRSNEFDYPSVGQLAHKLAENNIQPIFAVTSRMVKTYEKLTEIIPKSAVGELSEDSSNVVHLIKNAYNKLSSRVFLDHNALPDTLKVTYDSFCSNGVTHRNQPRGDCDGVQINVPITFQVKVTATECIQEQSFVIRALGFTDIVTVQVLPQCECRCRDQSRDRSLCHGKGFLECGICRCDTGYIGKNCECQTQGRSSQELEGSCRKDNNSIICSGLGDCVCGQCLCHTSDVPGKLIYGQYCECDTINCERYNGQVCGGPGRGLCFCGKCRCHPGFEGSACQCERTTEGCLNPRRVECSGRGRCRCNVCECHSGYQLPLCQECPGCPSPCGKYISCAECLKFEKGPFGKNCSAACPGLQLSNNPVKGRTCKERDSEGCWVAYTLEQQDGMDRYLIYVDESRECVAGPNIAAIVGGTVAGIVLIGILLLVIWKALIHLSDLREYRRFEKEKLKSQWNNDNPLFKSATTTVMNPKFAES
UniProt O15357: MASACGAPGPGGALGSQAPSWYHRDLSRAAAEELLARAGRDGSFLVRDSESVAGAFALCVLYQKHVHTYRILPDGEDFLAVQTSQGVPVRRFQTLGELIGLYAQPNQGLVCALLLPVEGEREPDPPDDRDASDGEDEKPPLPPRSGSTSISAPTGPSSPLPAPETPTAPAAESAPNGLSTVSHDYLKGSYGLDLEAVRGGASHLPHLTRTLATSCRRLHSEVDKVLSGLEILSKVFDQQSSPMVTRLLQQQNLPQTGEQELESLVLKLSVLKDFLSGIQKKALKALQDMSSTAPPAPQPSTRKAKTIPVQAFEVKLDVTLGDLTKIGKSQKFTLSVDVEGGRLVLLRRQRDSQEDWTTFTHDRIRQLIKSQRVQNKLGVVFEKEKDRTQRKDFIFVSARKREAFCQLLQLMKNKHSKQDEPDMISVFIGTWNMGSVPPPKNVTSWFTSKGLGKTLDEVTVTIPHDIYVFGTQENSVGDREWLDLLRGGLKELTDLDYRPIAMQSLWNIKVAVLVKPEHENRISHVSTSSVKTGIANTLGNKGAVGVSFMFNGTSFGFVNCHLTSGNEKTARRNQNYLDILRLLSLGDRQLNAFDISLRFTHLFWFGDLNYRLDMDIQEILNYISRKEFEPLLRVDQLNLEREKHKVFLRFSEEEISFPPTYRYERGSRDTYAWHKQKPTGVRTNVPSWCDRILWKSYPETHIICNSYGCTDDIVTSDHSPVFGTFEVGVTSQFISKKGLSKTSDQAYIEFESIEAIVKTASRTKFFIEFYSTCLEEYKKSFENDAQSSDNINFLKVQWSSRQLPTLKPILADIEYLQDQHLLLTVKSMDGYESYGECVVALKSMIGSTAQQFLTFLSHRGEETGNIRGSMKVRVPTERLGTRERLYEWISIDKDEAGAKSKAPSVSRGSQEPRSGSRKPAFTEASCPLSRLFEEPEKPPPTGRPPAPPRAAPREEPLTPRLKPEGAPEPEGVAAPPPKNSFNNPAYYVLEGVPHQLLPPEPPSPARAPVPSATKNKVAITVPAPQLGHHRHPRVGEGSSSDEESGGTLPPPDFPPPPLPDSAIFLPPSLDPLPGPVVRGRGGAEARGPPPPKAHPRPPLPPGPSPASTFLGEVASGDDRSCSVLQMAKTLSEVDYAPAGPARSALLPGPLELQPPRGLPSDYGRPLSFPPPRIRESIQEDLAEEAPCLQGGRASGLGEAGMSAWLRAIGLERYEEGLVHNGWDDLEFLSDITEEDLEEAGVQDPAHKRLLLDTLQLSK

The list shows a part of the results.

Compound in the assay: Cc1cc(ccc1-c1ccccc1)C(=O)N1CCCN(CC1)C(=O)CCl [compound 10]
Description: probe-labelled cysteine peptide fold change vs DMSO (competition) (log2 fold change); higher = less target engagement (more negative = stronger competition). Conditions: THP-1, incubation time: 4 h.
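Further: competitive profiling in live THP-1 cells: cysteine peptides tagged with an iodoacetamide desthiobiotin (IA-DTB) probe, intensity after compound treatment relative to DMSO-treated cells.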

With “IQGAP1_P46940_57_RWMEACLGEDLPPTTELEEGLR (UniProt P46940)”, the “probe-labelled cysteine peptide fold change” value by setting is: (10 µM) 0.00789; (50 µM) 0.0214.
As for “IRF2BP1_Q8IU81_36_GCVNFEGADR (UniProt Q8IU81)”, the “probe-labelled cysteine peptide fold change” value is -0.00612 (10 µM) and -0.122 (50 µM).
The like results for “IRF2BP2_Q7Z5L9_521_LEDTHFVQCPSVPSHK (UniProt Q7Z5L9)” were, in that order, 0.131 and -0.0429.
The like results for “ITPA_Q9BY32_33_KLEEVVQILGDKFPCTLVAQK (UniProt Q9BY32)” were, in that order, 0.182 and -0.712.
For “INTS2_Q9H0H0_1188_DTGSMDPDVQLCHCIER (UniProt Q9H0H0)” the same measures were 0.232 and 0.034.
As to “IPO11_Q9UI26_894_DCMLMSHLEEPKVTEDEEPPTEQDKR (UniProt Q9UI26)”, the “probe-labelled cysteine peptide fold change” value (10 µM) was -0.311 and the “probe-labelled cysteine peptide fold change” value (50 µM) is -0.572.
For “INTS3_Q68E01_843_YKEHPEALSCLLLQLR (UniProt Q68E01)” the same measures were -0.0729 and -0.129.
For “IPO7_O95373_484_ACWVLHYFCEVK (UniProt O95373)” the same measures were 0.00704 and 0.576.
The like results for “IREB2_P48200_720_CPSFFDK (UniProt P48200)” were, in that order, -0.287 and -0.168.
Consider “ITGA4_P13612_902_ADPHCLNFLCNFGK (UniProt P13612)”, for which the “probe-labelled cysteine peptide fold change” value by setting is: (10 µM) -0.0927; (50 µM) 0.265.
Take “ITGAL_P20701_845_PHSQIPVSCEELPEESR (UniProt P20701)”: the “probe-labelled cysteine peptide fold change” value is -0.418 (10 µM) and 0.101 (50 µM).
For “INTS10_Q9NVR2_7_SAQGDCEFLVQR (UniProt Q9NVR2)” the same measures were -0.0551 and -0.821.
For “IREB2_P48200_604_QGDLVTCGILSGNK (UniProt P48200)” the same measures were -0.0239 and 0.162.
Take “ITGAL_P20701_1154_GVPNGIPAEDSEQLASGQEAGDPGCLK (UniProt P20701)”: the “probe-labelled cysteine peptide fold change” value (10 µM) is -0.125 and the “probe-labelled cysteine peptide fold change” value (50 µM) was -0.0169.
Take “IRF2BP1_Q8IU81_546_AQGPAGEVYCPSGDK (UniProt Q8IU81)”: the “probe-labelled cysteine peptide fold change” value was -0.0635 (10 µM) and -0.049 (50 µM).
For “ITGB7_P26010_428_GQCNHVR (UniProt P26010)” the same measures were 0.116 and 0.225.
Take “ITGB2_P05107_628_YISCAECLK (UniProt P05107)”: the “probe-labelled cysteine peptide fold change” value reads like this: (10 µM) 0.198; (50 µM) 0.0242.
As for “ITGB2_P05107_400_GDCDGVQINVPITFQVK (UniProt P05107)”, the “probe-labelled cysteine peptide fold change” value is, setting by setting: (10 µM) -0.218; (50 µM) -0.0527.
Consider “INTS13_Q9NVM9_331_TNNIELHYCTGAYR (UniProt Q9NVM9)”, for which the “probe-labelled cysteine peptide fold change” value runs as follows: (10 µM) 0.129; (50 µM) 0.319.
“INTS13_Q9NVM9_202_CELVLIHTYPVGEDSLVSDR (UniProt Q9NVM9)”: the “probe-labelled cysteine peptide fold change” value is 0.128 (10 µM) and 0.231 (50 µM).
With “INTS11_Q5TA45_542_DHCVQHLPDGSVTVESVLLQAAAPSEDPGTK (UniProt Q5TA45)”, the “probe-labelled cysteine peptide fold change” value (10 µM) is -0.12 and the “probe-labelled cysteine peptide fold change” value (50 µM) was -0.115.
Consider “IRAK1_P51617_608_SWHLTPSCPLDPAPLR (UniProt P51617)”, for which the “probe-labelled cysteine peptide fold change” value came out at 0.188 (10 µM) and 0.076 (50 µM).
For “IPO8_O15397_478_SCWVLHAFSSLK (UniProt O15397)” the same measures were -0.071 and 0.0544.
For “IQGAP1_P46940_45_QNVAYEYLCHLEEAKR (UniProt P46940)” the same measures were 0.0748 and -0.0751.
For “INPPL1_O15357_1187_ESIQEDLAEEAPCLQGGR (UniProt O15357)” the same measures were 0.438 and 0.152.
Turning to “IPO5_O00410_348_MACGLGGK (UniProt O00410)”, the “probe-labelled cysteine peptide fold change” value (10 µM) was -0.173 and the “probe-labelled cysteine peptide fold change” value (50 µM) amounted to 0.0487.
On to “ITGAX_P20702_848+863_SLHLTCDSAPVGSQGTWSTSCR (UniProt P20702)”, for which the “probe-labelled cysteine peptide fold change” value runs as follows: (10 µM) 0.204; (50 µM) 0.109.
For “INPPL1_O15357_405_EAFCQLLQLMK (UniProt O15357)”, the “probe-labelled cysteine peptide fold change” value is, setting by setting: (10 µM) -0.0354; (50 µM) 0.0749.
For “ITGB2_P05107_467_GFLECGICR (UniProt P05107)” the same measures were 0.0535 and 0.221.
The like results for “IRF2BP2_Q7Z5L9_509_EVGGQGAGNTGGLEPVHPASLPDSSLATSAPLCCTLCHER (UniProt Q7Z5L9)” were, in that order, -0.103 and -0.221.
